Assay [1] has as its target purified bovine cardiac alpha-tropomyosin (bovine) (UniProt Q5KR49). Kind of assay: competitive ELISA; tropomyosin coated, competitor intact cardiac TnI. For orientation: An ELISA detects its analyte on a solid surface through an enzyme-linked reagent.
Assay [2] shares this target. Kind of assay: competitive ELISA; tropomyosin coated, competitor intact bovine cardiac TnI, detection by mAb 4H6.

Results are given in words; binding and its absence hold for the method and conditions named. Some entries that bind do so weakly or less than the wild type.

B1: HcTnI-C27 peptide (the C-terminal 27 amino acid peptide of human cardiac TnI) (peptide)
peptide: ENREVGDWRKNIDALSGMEGRKKKFES
Consider B1, for which the binding result in assay [1] and in assay [2] was “binds” throughout.

Values taken from US20210038687A1.
